# Data reported in the supplement of paper PMC12889115.
# The other results are listed elsewhere or left out. These are raw signals, not scaled to a control.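 Primary screen: polymyxin B was added at a level permeabilizing Salmonella outer membranes while sparing inner membranes. DMSO wells, both with and without polymyxin B, established maximum growth. Plate-to-plate variation meant each plate was ranked on its own, and the lowest-OD600 compounds were selected as hits.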
# Test system: Salmonella enterica serovar Typhimurium SL1344
# Assay: bacterial growth OD600 after 18 h with compound and polymyxin B; higher = more bacterial growth (less inhibition)
# Conditions: 50 µM, Mueller-Hinton broth
Compound,bacterial growth OD600 (polymyxin B 1 µg/mL),bacterial growth OD600 (polymyxin B 0.75 µg/mL)
O=C(CCC1CCN(C(=O)C2=CCCC2)CC1)Nc1ccc(F)c(Cl)c1,0.839,
O=S(=O)(NCc1cccnc1Oc1ccc(F)c(F)c1)N1CCOCC1,0.804,
Cc1ccccc1Oc1ncccc1CNC(=O)CCN1CCCO1,1,
CCN(Cc1ccc(OC)cc1)CC1CCCN(CCc2cccc(OC)c2)C1 (stereo unspecified),0.746,
CO[C@H]1[C@H](NC(=O)c2ccncc2)c2ccccc2C12CCN(C(=O)c1cc3ccccc3n1C)CC2,,0.797
CC(C)CN(C)c1ccc(C(=O)N2CCC(CN3CCCC3=O)CC2)cn1,,0.764
O=C(c1ccccc1C(F)(F)F)N1CCC2(CC1)CC2C(=O)N1CCN(c2ccccn2)CC1 (stereo unspecified),,0.818
Cc1nc2ccccc2n1Cc1cc(C(=O)N2CCc3sccc3C2)n[nH]1,0.867,
O=C(Nc1ccc(-c2ccn[nH]2)cc1)C1CCCN(Cc2cc(F)ccc2F)C1 (stereo unspecified),0.934,
Cc1nccn1CCCNC(=O)c1ccc(OC2CCN(C(=O)C3CC3)CC2)cc1,1.04,
CN(CC1CCN(CCc2ccc(F)cc2)CC1)C(=O)c1ccsc1,1.07,
COc1ccc(C(=O)N(C)CC2CCCN(CCc3ccccc3OC)C2)cc1C (stereo unspecified),0.695,
CN(CCc1ccccn1)C(=O)CCC1CCCN(C(=O)CC2=CCCCC2)C1 (stereo unspecified),0.824,
COc1ccc(CN2CCN(Cc3cccc4ncccc34)CC2CCO)c(F)c1 (stereo unspecified),0.943,
CCc1ccc(CN2CCc3c(C(=O)N4CCCCC4C(=O)OC)c(OC)cc(=O)n3CC2)o1 (stereo unspecified),,0.838
OC(Cc1ccccc1)c1ccc2c(c1)CN(Cc1cccnc1)CCO2 (stereo unspecified),,0.986

# In the list so far, 5 contain a carbonyl joined to an NH by a bond outside any ring.
Compound,bacterial growth OD600 (polymyxin B 1 µg/mL),bacterial growth OD600 (polymyxin B 0.75 µg/mL)
O=C(CCC1CCN(C(=O)C2=CCCC2)CC1)Nc1ccc(F)c(Cl)c1,0.839,
Cc1ccccc1Oc1ncccc1CNC(=O)CCN1CCCO1,1,
CO[C@H]1[C@H](NC(=O)c2ccncc2)c2ccccc2C12CCN(C(=O)c1cc3ccccc3n1C)CC2,,0.797
O=C(Nc1ccc(-c2ccn[nH]2)cc1)C1CCCN(Cc2cc(F)ccc2F)C1 (stereo unspecified),0.934,
Cc1nccn1CCCNC(=O)c1ccc(OC2CCN(C(=O)C3CC3)CC2)cc1,1.04,

# (further entries)

Compound,bacterial growth OD600 (polymyxin B 1 µg/mL),bacterial growth OD600 (polymyxin B 0.75 µg/mL)
Oc1cccc(CNC2COc3ccccc3C2)c1 (stereo unspecified),0.817,
O=C(CC1(c2ccccc2)CC(=O)N(CCc2ccccn2)C1=O)N1CCC(Cc2ccccc2)CC1 (stereo unspecified),,0.001
Cn1nc2c(c1C(=O)N1CCOc3ccc(CN4CCN(c5ccccc5)CC4)cc3C1)CCCC2,,0.941
CN(C)C(=O)CCC(=O)NCc1cccnc1Oc1ccc(F)c(F)c1,1.23,
COC(=O)c1ccc(C(=O)N(C)C2CCCN(Cc3ccccc3F)C2)cc1 (stereo unspecified),0.974,
Cn1cc(CCC(=O)NC2CC(=O)N(Cc3cccc(F)c3)C2)cn1 (stereo unspecified),0.971,
COc1ccc(N2CCN(C3CCCN(Cc4ccc(O)c(Cl)c4)C3)CC2)cc1 (stereo unspecified),0.887,
COc1cccc2c1OCC(NCc1ccc(C)cc1)C2 (stereo unspecified),,0.769
Cc1nc(N(C)C2CCCCC2)ncc1C(C)NCc1cnc(C)n1C (stereo unspecified),,0.774
COc1cccc2c1OCCCN(C(=O)c1ccc(-n3cc(NC(=O)c4cccnc4)cn3)cc1)C2,,0.797
COc1ccccc1C1CN(CC(=O)NC(CCn2ccnc2)c2ccccc2)Cc2ccccc2O1 (stereo unspecified),,0.004
CCOC(=O)C1(Cc2ccccc2F)CCCN(C(=O)c2cnn(CC)c2)C1 (stereo unspecified),0.825,
CCOC(=O)C1(Cc2ccc(OC)cc2)CCN(C(=O)c2ccccc2OC)CC1,0.615,
O=C(c1cc[n+]([O-])cc1)N1CCCC(CCc2cccc(F)c2)C1 (stereo unspecified),,0.768
CC1CN(CC(=O)N(CCO)Cc2ccccc2)Cc2cc(Cl)ccc2O1 (stereo unspecified),,0.52
